Data as given in PubChem BioAssay AID504744 (Drosophila RNAi Screening Center, 2011).
The screen tested about 23,000 reagents; this is a random part of those with a known target gene and a result. Over the whole deposit, 98 (0.43%) got an active call. 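Only hit calls are given; the phospho-dAkt signals, z-scores and hit direction were not deposited.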 Reagents against one gene are numbered here. A plus sign joins genes that one reagent is predicted to hit.

Purpose: 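Identify dsRNAs that increase or decrease phospho-dAkt after insulin treatment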 (primary screen)
System: Drosophila Kc167 cells
Reagents: long dsRNA against Drosophila genes, 250 ng dsRNA per well of a 384-well plate
Time to read-out: 3 days of knock-down, then overnight serum-free starvation before stimulation
Challenge: bovine insulin at 387 nM for 10 minutes after 12 h without serum
Measured: 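In-cell antibody fluorescence for phospho-dAkt in each well over DNA-dye signal, with log2 residuals expressed as z-scores adjusted for cell count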
Hit rule: 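Hit in the insulin screen when the two-replicate mean z-score is more extreme than plus or minus 2.5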

predicted target | dsRNA no. | Outcome
CG9166 | 1 | inactive
CG13627 | 1 | inactive
Top3beta | 1 | inactive
CG31415 | 1 | inactive
ND-51L1 | 1 | inactive
VAChT | 1 | inactive
VAChT | 2 | inactive
laf | 1 | inactive
w-cup | 1 | inactive
Caf1-55 | 1 | inactive
CG10589 | 1 | inactive
CG43894 | 1 | inactive
CG12609 | 1 | inactive
His4r | 1 | inactive
CG3091 | 1 | inactive
nsl1 | 1 | inactive
vir | 1 | inactive
CG13722 | 1 | inactive
CG13722 | 2 | inactive
Vps13B | 1 | inactive
ase | 1 | inactive
CG15096 | 1 | inactive
sls | 1 | inactive
sls | 2 | inactive
sls | 3 | inactive
CG40948 (retired record) | 1 | inactive
CG10621 | 1 | inactive
eIF3m | 1 | inactive
CG9328 | 1 | inactive
az2 | 1 | inactive
LysD + LysB + LysC (retired record) | 1 | inactive
Gr61a | 1 | inactive
Hsc70-5 | 1 | inactive
CG5790 | 1 | inactive
Gr59b | 1 | inactive
ATP8A | 1 | inactive
ATP8A | 2 | inactive
ATP8A | 3 | inactive
CG1137 | 1 | inactive
CG33333 | 1 | inactive
CG32073 | 1 | inactive
CG32073 | 2 | inactive
CG11018 | 1 | inactive
Pss | 1 | inactive
dikar | 1 | inactive
dikar | 2 | inactive
ND-B17.2 | 1 | inactive
CG33331 + CG33332 | 1 | inactive
Uvrag | 1 | inactive
CG10365 | 1 | inactive
CG5781 | 1 | inactive
mip130 | 1 | active
Hsc70-3 | 1 | inactive
CecA2 | 1 | inactive
CG11164 | 1 | inactive
CG3502 | 1 | inactive
Alms1b + Alms1a | 1 | inactive
CG5003 | 1 | inactive
eEF1alpha2 | 1 | inactive
eEF1alpha2 | 2 | inactive
CG13321 | 1 | inactive
CG3164 | 1 | inactive
CG34229 | 1 | inactive
lin-52 | 1 | inactive
mi | 1 | inactive
otu | 1 | inactive
pad | 1 | inactive
CG1840 | 1 | inactive
Gr93d | 1 | inactive
Gr2a | 1 | inactive
Blm + CG14721 | 1 | inactive
CG14717 | 1 | inactive
Cpr11A | 1 | inactive
l(3)04053 | 1 | inactive
Dhx15 | 1 | inactive
Tsp26A | 1 | inactive
Sodh1 | 1 | inactive
CG14605 | 1 | inactive
CG31093 | 1 | inactive
CG34244 | 1 | inactive
CG4733 | 1 | inactive
CR30068 (retired record) | 1 | inactive
Rabex-5 | 1 | inactive
CG9992 | 1 | inactive
CG9992 | 2 | inactive
CG15599 | 1 | inactive
CG12025 | 1 | inactive
CG3880 | 1 | inactive
CG3880 | 2 | inactive
CG9897 + asRNA:CR42742 | 1 | inactive
Usf | 1 | inactive
CG34342 | 1 | inactive
CG34342 | 2 | inactive
CG6726 | 1 | inactive
Kaz | 1 | inactive
CG7924 | 1 | inactive
Ctps | 1 | inactive
Ctps | 2 | inactive
Ctps | 3 | inactive
CG32651 | 1 | inactive
zen2 | 1 | inactive
if | 1 | inactive
haf | 1 | inactive
sals | 1 | inactive
sals | 2 | inactive
CG9485 | 1 | inactive
srl | 1 | inactive
CG10444 | 1 | inactive
CG11162 | 1 | inactive
CG11162 | 2 | inactive
Actbeta | 1 | inactive
Actbeta | 2 | inactive
unc-5 | 1 | inactive
unc-5 | 2 | inactive
unc-5 | 3 | inactive
Pop1 | 1 | inactive
CG18233 | 1 | inactive
CG8492 | 1 | inactive
CG8492 | 2 | inactive
Capr | 1 | inactive
Prosalpha5 | 1 | inactive
l(2)27Cb (retired record) | 1 | inactive
Ir7d | 1 | inactive
CG8773 | 1 | inactive
CG31388 | 1 | inactive
Vha55 | 1 | inactive
ChLD3 | 1 | inactive
vri | 1 | inactive
CG13022 | 1 | inactive
DopEcR | 1 | inactive
botv | 1 | inactive
CG12693 | 1 | inactive
CG7365 | 1 | inactive
CG3515 | 1 | inactive
atos | 1 | inactive
alphaTub84D | 1 | inactive
Gprk1 | 1 | inactive
Gprk1 | 2 | inactive
CG4630 | 1 | inactive
mspo | 1 | inactive
Ir94f | 1 | inactive
CG16812 | 1 | inactive
CG15237 | 1 | inactive
Zn72D | 1 | inactive
ort | 1 | inactive
CG17325 + CG42305 | 1 | inactive
RunxB | 1 | inactive
RunxB | 2 | inactive
RunxB | 3 | inactive
PIG-C | 1 | inactive
CG31760 | 1 | inactive
Blos1 | 1 | inactive
Vha100-4 | 1 | inactive
Cdc42 | 1 | inactive
CG4611 | 1 | inactive
Ric | 1 | inactive
gce | 1 | inactive
gce | 2 | inactive
Neos | 1 | inactive
CG14598 | 1 | inactive
CG42240 | 1 | inactive
CG9067 | 1 | inactive
CG11961 | 1 | inactive
CenB1A | 1 | inactive
CG7298 | 1 | inactive
Vps36 | 1 | inactive
Nhe2 | 1 | inactive
Nhe2 | 2 | inactive
Rel | 1 | inactive
Faf2 | 1 | inactive
Spn28Db | 1 | inactive
Obp56f | 1 | inactive
jub | 1 | inactive
Vtld + CG42529 | 1 | inactive
DIP-delta | 1 | inactive
DIP-delta | 2 | inactive
CG8032 | 1 | inactive
CG4678 | 1 | inactive
CG4678 | 2 | inactive
CG5909 | 1 | inactive
ImpE1 | 1 | inactive
ImpE1 | 2 | inactive
CG13085 | 1 | inactive
sesB | 1 | inactive
MTA1-like | 1 | inactive
MTA1-like | 2 | inactive
CG30416 | 1 | inactive
SAK | 1 | inactive
ND-51 | 1 | inactive
GLS | 1 | inactive
CG4882 | 1 | inactive
Phae2 | 1 | inactive
l(3)neo38 | 1 | inactive
l(3)neo38 | 2 | inactive
Atf-2 | 1 | inactive
Atf-2 | 2 | inactive
tgy | 1 | inactive
CG3097 | 1 | inactive
Slc45-1 | 1 | inactive
CG2975 | 1 | inactive

Entries listed so far whose gene name starts with G or g:
predicted target | dsRNA no. | Outcome
Gr61a | 1 | inactive
Gr59b | 1 | inactive
Gr93d | 1 | inactive
Gr2a | 1 | inactive
Gprk1 | 1 | inactive
Gprk1 | 2 | inactive
gce | 1 | inactive
gce | 2 | inactive
GLS | 1 | inactive
